Experimental findings from PubChem BioAssay AID330 (DTP/NCI, 2004) are described below.

The structures appear in SMILES notation. The list does not hold the whole screen: it is rich in T/C values a quarter to a half above the control, in often repeated tests (any T/C) and in doses without a T/C. Further doses and runs are listed elsewhere. T/C gives the treated animals as a percentage of the vehicle group. Some entries give survivors of the animals treated and no T/C: the source holds a T/C of zero for them, seemingly a mark for toxic or unscored doses. Some doses without a T/C left all or most animals alive at the check, yet need not have been tolerated: the source hardly ever lists a survival T/C far under the control, and the zero likely stands for such cases as well. Survivors were counted at the toxicity check, usually on the fifth day, unless a day is given; later deaths do not show. Schedules are NCI's codes, read here as Q, the interval in days (D) or hours (H), X, the number of doses. Some entries hold several experiments; their values stand side by side, smallest first. Where survival is the endpoint, this PubChem deposit counts one and a half times the control or more as active, and values a quarter to a half above the control carry no call in these data; other NCI protocols may use other cut-offs. Some T/C values are followed by the survivors on the day toxicity was checked, most often the fifth; without a count, all were alive then.

The test relates to P388 leukemia ip, CD2F1 mice, survival T/C. As to the kind of experiment: NCI In Vivo Anticancer Drug Screen. Data for tumor model P388 Leukemia (intraperitoneal) in CD2F1 (CDF1) mice. The conditions noted are these: T/C endpoint: median survival time, higher T/C = longer survival.
Where [1] appears, read: dose: 50.0 mg/kg/injection, schedule: Q01DX009 (ip), vehicle: saline.
The mark [2] stands for this setting: dose: 200.0 mg/kg/injection, schedule: Q01DX009 (ip), vehicle: saline with Tween-80.
[3] abbreviates: dose: 240.0 mg/kg/injection, schedule: Q01DX005 (ip), vehicle: saline with Tween-80.
The mark [4] stands for this setting: dose: 50.0 mg/kg/injection, schedule: Q01DX009 (ip), vehicle: Klucel (hydroxypropylcellulose) (HPC).
Setting [5] is: dose: 240.0 mg/kg/injection, schedule: Q01DX005 (ip), vehicle: Klucel (hydroxypropylcellulose) (HPC).
The mark [6] stands for this setting: dose: 100.0 mg/kg/injection, schedule: Q04DX002 (ip), vehicle: saline with Tween-80.

`CCOP(=O)(OCC)Oc1cnn(C)c(=O)c1SCC`: the survivor count was 0 of 5 (dose: 1.56 mg/kg/injection, schedule: Q01DX005 (ip), vehicle: saline); 0 of 5 (dose: 3.13 mg/kg/injection, schedule: Q01DX005 (ip), vehicle: saline); 0 of 6 (dose: 6.25 mg/kg/injection, schedule: Q01DX005 (ip), vehicle: saline); 0 of 6 (dose: 12.5 mg/kg/injection, schedule: Q01DX005 (ip), vehicle: saline); 0 of 6 (dose: 25.0 mg/kg/injection, schedule: Q01DX005 (ip), vehicle: saline).
For the compound `CCCCCCCCCCCCC[N+]1(CC)CCCCC1`, the survivor count is 5 of 6 (dose: 3.12 mg/kg/injection, schedule: Q01DX009 (ip), vehicle: saline); 5 of 6 (dose: 6.25 mg/kg/injection, schedule: Q01DX009 (ip), vehicle: saline); 2 of 6 (dose: 12.5 mg/kg/injection, schedule: Q01DX009 (ip), vehicle: saline); 0 of 6 under setting [1]; 0 of 6 (dose: 100.0 mg/kg/injection, schedule: Q01DX009 (ip), vehicle: saline); 0 of 6 (dose: 200.0 mg/kg/injection, schedule: Q01DX009 (ip), vehicle: saline).
On to `C=C(C)C1CC2=C(C(=O)OC)C=C(O2)C(C(=C)C)C2C=C(C(=O)O2)C2OC12` (configuration not stated), for which the survivor count (dose: 200.0 mg/kg/injection, schedule: Q01DX005 (ip), vehicle: saline + alcohol) is given as 0 of 5.
Turning to `CCCCCCCC/C=C\CCCCCCCC(=O)NCCCN(C)C`, the survivor count by setting is: under setting [1], 0 of 6; (dose: 100.0 mg/kg/injection, schedule: Q01DX009 (ip), vehicle: saline with Tween-80) 1 of 6; under setting [2], 0 of 6.
Consider `C/C=C/C(C)C1OC1(C)C(O)C1COC(=O)C(O)C(OC)C(C)C(=O)C(C)C(O)/C(C)=C/C(C)C(=O)CC(O)C(C)C1=O` (configuration not stated), for which the survivor count by setting is: (dose: 12.5 micrograms/kg/injection, schedule: Q01DX005 (ip), vehicle: saline) 0 of 6 and 1 of 6; (dose: 25.0 micrograms/kg/injection, schedule: Q01DX005 (ip), vehicle: saline) 0 of 6; (dose: 50.0 micrograms/kg/injection, schedule: Q01DX005 (ip), vehicle: saline) 0 of 6.
For `CC12C=CC(O1)C1C(=O)OC(=O)C12` (configuration not stated), under setting [3], the survivor count was 2 of 6.
`CCCCOP(O)(=S)OCCCC.[Ho]`: the T/C (dose: 100.0 mg/kg/injection, schedule: Q01DX001 (ip), vehicle: saline with Tween-80) was 139 % of control.
`Cn1c(=O)c2nc3c(=O)n(C)c(=O)n(C)c3nc2n(C)c1=O`: the T/C runs as follows: (dose: 25.0 mg/kg/injection, schedule: Q01DX009 (ip), vehicle: Klucel (hydroxypropylcellulose) (HPC)) 126 % of control; under setting [4], 129 % of control [5 of 6 alive]. Moreover, the survivor count under setting [4] was 5 of 6.
With `COC(=O)c1nc(N)nc(C(=O)OC)c1C(=O)c1ccc(Cl)cc1`, the survivor count under setting [5] is given as 2 of 6.
In the case of `FC(F)(F)COSc1ccccc1`, the survivor count is reported as 0 of 6 under setting [6]; 0 of 6 (dose: 200.0 mg/kg/injection, schedule: Q04DX002 (ip), vehicle: saline with Tween-80); 0 of 6 (dose: 400.0 mg/kg/injection, schedule: Q04DX002 (ip), vehicle: saline with Tween-80).
Regarding `CC(/C=N/Nc1ccccc1)=N\N=c1/scc(-c2ccc(Br)cc2)n1-c1ccc(C)cc1`, where the note is “dose: 200.0 mg/kg/injection, schedule: Q01DX001 (ip), vehicle: saline with Tween-80”, the survivor count is 6 of 6.
Consider `COc1cccc(CN2CCNCC2)c1`, for which the survivor count (dose: 100.0 mg/kg/injection, schedule: Q01DX009 (ip), vehicle: water) is given as 5 of 6.
As for `O=C(CCl)Nc1nncs1`, the survivor count (dose: 400.0 mg/kg/injection, schedule: Q01DX009 (ip), vehicle: distilled water + Tween-80) was 0 of 6.
Turning to `CC(/C=C/c1cccc(C)c1)=N\NC(N)=S`, the T/C (dose: 15.0 mg/kg/injection, schedule: Q01DX005 (ip), vehicle: Klucel (hydroxypropylcellulose) (HPC)) was 125 % of control. Further, the survivor count (dose: 30.0 mg/kg/injection, schedule: Q01DX005 (ip), vehicle: Klucel (hydroxypropylcellulose) (HPC)) is recorded as 5 of 6; the survivor count (dose: 60.0 mg/kg/injection, schedule: Q01DX005 (ip), vehicle: Klucel (hydroxypropylcellulose) (HPC)) is listed as 0 of 6; the survivor count (dose: 120.0 mg/kg/injection, schedule: Q01DX005 (ip), vehicle: Klucel (hydroxypropylcellulose) (HPC)) is 0 of 6; the survivor count under setting [5] is 0 of 6.
Take `N#CN=[N+]([O-])c1ccccc1[N+](=O)[O-]`: the survivor count reads like this: (dose: 25.0 mg/kg/injection, schedule: Q04DX003 (ip), vehicle: Klucel (hydroxypropylcellulose) (HPC)) 0 of 6; (dose: 50.0 mg/kg/injection, schedule: Q04DX003 (ip), vehicle: Klucel (hydroxypropylcellulose) (HPC)) 0 of 6; (dose: 100.0 mg/kg/injection, schedule: Q04DX003 (ip), vehicle: Klucel (hydroxypropylcellulose) (HPC)) 0 of 6; (dose: 200.0 mg/kg/injection, schedule: Q04DX003 (ip), vehicle: Klucel (hydroxypropylcellulose) (HPC)) 0 of 6.
Regarding `O=c1c2ccccc2oc2nc3ccccc3nc12`, under setting [5], the survivor count is reported as 1 of 6.
Turning to `Nc1nc(N)c2c(Cl)c(CNc3ccc(Cl)c(Cl)c3)ccc2n1`, under “dose: 3.0 mg/kg/injection, schedule: Q01DX009 (ip), vehicle: saline with Tween-80”, the T/C was 127 % of control.
Turning to `CC(C)c1ccc(O)c(=O)cc1`, under setting [2], the survivor count was 0 of 6.
Regarding `CC12C(=O)C(c3ccccc3)(C(c3ccccc3)=C1c1ccccc1)C1OC(=O)OC12` (configuration not stated), under setting [2], the survivor count is given as 6 of 6.
On to `CNC(=O)c1cccc2ccc[n+](C)c12`, for which the survivor count was 0 of 6 (dose: 12.5 mg/kg/injection, schedule: Q04DX002 (ip), vehicle: saline); 0 of 6 (dose: 25.0 mg/kg/injection, schedule: Q04DX002 (ip), vehicle: saline); 0 of 6 (dose: 50.0 mg/kg/injection, schedule: Q04DX002 (ip), vehicle: saline).
For the compound `NC(=NCc1ccccc1)c1ccc(N=C(N)c2ccc(C(N)=Nc3ccc(C(N)=NCc4ccccc4)cc3)cc2)cc1`, the T/C is 136 % of control (dose: 10.0 mg/kg/injection, schedule: Q01DX009 (ip), vehicle: saline sonified) and 136 % of control (dose: 15.0 mg/kg/injection, schedule: Q01DX009 (ip), vehicle: saline). Besides, the survivor count is on record as 0 of 6 (dose: 20.0 mg/kg/injection, schedule: Q01DX009 (ip), vehicle: saline sonified) and 0 of 6 (dose: 40.0 mg/kg/injection, schedule: Q04DX003 (ip), vehicle: saline with Tween-80).
`N#CCc1nc2ccccc2s1`: under setting [3], the survivor count is 0 of 6.
For the compound `O=C1CC2C(CC3OC(=O)C4C3C23COC4(O)C(O)C3)c2occc21` (configuration not stated), under “dose: 400.0 mg/kg/injection, schedule: Q01DX001 (ip), vehicle: saline with Tween-80”, the survivor count was 3 of 6.
Take `COc1ccc(C2CC(C)(OC)Oc3cc4c(cc32)OCO4)cc1` (configuration not stated): the survivor count (dose: 400.0 mg/kg/injection, schedule: Q01DX001 (ip), vehicle: Klucel (hydroxypropylcellulose) (HPC)) is given as 6 of 6.
For `O=C1NC(O)c2cccc(Br)c2O1` (configuration not stated), the survivor count (dose: 400.0 mg/kg/injection, schedule: Q01DX005 (ip), vehicle: saline with Tween-80) is 0 of 5.
On to `N=C(N)n1cc(/C=N/N=C(N)N)cn1`, for which the survivor count under setting [3] is listed as 1 of 6.
Consider `Cc1nn(C(=S)S)c(C)c1N=Nc1ccccc1C(F)(F)F`, for which, under “dose: 12.5 mg/kg/injection, schedule: Q04DX002 (ip), vehicle: saline with Tween-80”, the T/C was 129 % of control. Also, under setting [6], the survivor count is listed as 5 of 5.
